PubChem BioAssay AID1508597 – Cure First, 2020
Here is an unselected part of about 2,100 reagents. 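Calls flag viability under 80% in either arm, not effects specific to rucaparib; the reference for percent is not stated.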 A number with no mark means an inactive call. Reagent sequences are not shown. Not given: the 100% reference.

Test: 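Survival screen with siRNA in ovarian cancer cells derived from patients, with or without rucaparib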 (primary screen)
System: human ovarian carcinoma lines grown from tumours: OCI-P5x (papillary serous) and OCI-C5x (clear cell)
Knock-down reagent: siRNA pool against human genes, 1.25 pmol siRNA per well
Timing: 72 h or 96 h, depending on the cell culture
Treatment: rucaparib 20 µM (about IC30) or vehicle, present until read-out
Measured: 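Luminescent ATP-based viability assay read 72 or 96 h after transfection, depending on culture, given as normalised percent viability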
Scale: viability, normalised: higher = more viable cells remaining
Rule for the call: 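a well counts as a hit if its normalised viability is under 80 percent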
Calls: active = viability under 80%; inactive = viability 80% or more

PLCG1, rucaparib or vehicle Rucaparib, cell line OCI-C5x (clear cell), technical replicate 1
- viability, normalised (%): 67 (active)

PLCG1, rucaparib or vehicle Rucaparib, cell line OCI-C5x (clear cell), technical replicate 2
- viability, normalised (%): 62.5 (active)

PLCG1, rucaparib or vehicle Rucaparib, cell line OCI-C5x (clear cell), technical replicate 3
- viability, normalised (%): 51.2 (active)

PLCG1, rucaparib or vehicle Rucaparib, cell line OCI-P5x (serous), technical replicate 1
- viability, normalised (%): 60.6 (active)

PLCG1, rucaparib or vehicle Rucaparib, cell line OCI-P5x (serous), technical replicate 2
- viability, normalised (%): 63.1 (active)

PLCG1, rucaparib or vehicle Rucaparib, cell line OCI-P5x (serous), technical replicate 3
- viability, normalised (%): 70.3 (active)

PLCG1, rucaparib or vehicle Vehicle, cell line OCI-C5x (clear cell), technical replicate 1
- viability, normalised (%): 50.9 (active)

PLCG1, rucaparib or vehicle Vehicle, cell line OCI-C5x (clear cell), technical replicate 2
- viability, normalised (%): 57.2 (active)

PLCG1, rucaparib or vehicle Vehicle, cell line OCI-C5x (clear cell), technical replicate 3
- viability, normalised (%): 58.8 (active)

PLCG1, rucaparib or vehicle Vehicle, cell line OCI-P5x (serous), technical replicate 1
- viability, normalised (%): 87.4

PLCG1, rucaparib or vehicle Vehicle, cell line OCI-P5x (serous), technical replicate 2
- viability, normalised (%): 75.1 (active)

PLCG1, rucaparib or vehicle Vehicle, cell line OCI-P5x (serous), technical replicate 3
- viability, normalised (%): 67.9 (active)
